Measurements reported in the supplement of paper PMC3334620.
Whole data set: some 33,000 sequences, median “E-score (-0.5 to 0.5)” near -0.015, cut for the highest 2% near 0.3. This is one part of the list.

target: T1, Abf1 (UniProt P14164); test: PBM E-score (8-mer binding enrichment) (E-score (-0.5 to 0.5)); higher = stronger / more preferred TF binding; conditions: protein concentration: 200 nM; construct: GST-full length
T1 sequence: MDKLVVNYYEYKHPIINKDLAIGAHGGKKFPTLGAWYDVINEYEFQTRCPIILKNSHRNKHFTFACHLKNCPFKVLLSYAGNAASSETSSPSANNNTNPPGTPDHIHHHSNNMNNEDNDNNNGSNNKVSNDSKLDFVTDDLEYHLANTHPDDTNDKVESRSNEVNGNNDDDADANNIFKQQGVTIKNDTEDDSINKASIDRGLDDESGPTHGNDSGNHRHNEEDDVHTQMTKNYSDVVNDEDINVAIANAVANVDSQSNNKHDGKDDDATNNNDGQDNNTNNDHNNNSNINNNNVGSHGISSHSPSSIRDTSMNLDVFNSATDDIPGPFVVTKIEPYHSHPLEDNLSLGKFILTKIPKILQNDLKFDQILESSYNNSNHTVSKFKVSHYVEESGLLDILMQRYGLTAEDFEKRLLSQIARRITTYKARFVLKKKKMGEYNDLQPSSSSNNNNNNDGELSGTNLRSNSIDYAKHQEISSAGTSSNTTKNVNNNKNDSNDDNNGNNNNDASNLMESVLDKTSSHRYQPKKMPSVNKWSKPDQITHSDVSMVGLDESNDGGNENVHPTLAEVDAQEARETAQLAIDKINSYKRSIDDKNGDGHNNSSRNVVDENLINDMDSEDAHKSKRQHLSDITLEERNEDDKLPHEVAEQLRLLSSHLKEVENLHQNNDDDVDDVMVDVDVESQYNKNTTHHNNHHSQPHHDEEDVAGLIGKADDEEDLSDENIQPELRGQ
Procedure, shortened: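 Full-length yeast transcription factors or their DNA-binding domains, GST-tagged and expressed with PURExpress, were applied at about 100-200 nM to universal all-10-mer Agilent arrays. These arrays had been made double-stranded by primer extension on fresh or once-stripped slides. Detection used fluorescent anti-GST, normalisation used masliner, and E-scores for ungapped eight-base words pooled with reverse complements came from the Universal PBM Analysis Suite.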

Q: Which “PBM E-score” value does the source give for CTTTGTAC here?
A: 0.228

Q: Which “PBM E-score” value does the source give for ATACCCAT here?
A: -0.086

Q: How did the “PBM E-score” value turn out when ACACAAGC was run?
A: -0.125

Q: How did the “PBM E-score” value turn out when TGACTTAA was run?
A: 0.061

Q: For CATCCTAA, which “PBM E-score” value is on record?
A: 0.078

Q: For AAATTCAA, which “PBM E-score” value is on record?
A: 0.119

Q: CGAATCCC was tested. Which “PBM E-score” value did it give?
A: 0.0659

Q: ACACTACT was tested. Which “PBM E-score” value did it give?
A: 0.0557

Q: How did the “PBM E-score” value turn out when AGATGCGG was run?
A: -0.0364

Q: How did the “PBM E-score” value turn out when GGCCAAAA was run?
A: -0.0557

Q: CCAACCTA was tested. Which “PBM E-score” value did it give?
A: -0.192

Q: How did the “PBM E-score” value turn out when CATAACAC was run?
A: 0.0508

Q: With CACCATAG as the sequence, how does the “PBM E-score” value read?
A: -0.276

Q: With CAGCTGCG as the sequence, how does the “PBM E-score” value read?
A: -0.144

Q: CATGCAAA was tested. Which “PBM E-score” value did it give?
A: 0.0125

Q: With CATCTCAG as the sequence, how does the “PBM E-score” value read?
A: 0.0453

Q: ACGACACC was tested. Which “PBM E-score” value did it give?
A: 0.283

Q: How did the “PBM E-score” value turn out when AAGGGCGG was run?
A: -0.28

Q: How did the “PBM E-score” value turn out when CGTACACG was run?
A: 0.245

Q: How did the “PBM E-score” value turn out when AGCACTCA was run?
A: -0.0802

Q: CATCATCA was tested. Which “PBM E-score” value did it give?
A: 0.254

Q: How did the “PBM E-score” value turn out when GACATTTA was run?
A: 0.0126

Q: ACGCGGAA was tested. Which “PBM E-score” value did it give?
A: -0.0474

Q: AACCACCG was tested. Which “PBM E-score” value did it give?
A: -0.0015

Q: For CTATCGAA, which “PBM E-score” value is on record?
A: 0.00268

Q: GTACTTCA was tested. Which “PBM E-score” value did it give?
A: 0.158

Q: With ACCGTAGA as the sequence, how does the “PBM E-score” value read?
A: 0.219

Q: AACGCAGG was tested. Which “PBM E-score” value did it give?
A: -0.179

Q: Which “PBM E-score” value does the source give for CCGGTATC here?
A: 0.00781

Q: CGTTGGAC was tested. Which “PBM E-score” value did it give?
A: 0.0299

Q: Which “PBM E-score” value does the source give for AAAGAAGA here?
A: -0.0112

Q: For ACGGTGGC, which “PBM E-score” value is on record?
A: 0.1

Q: For ACGATGAA, which “PBM E-score” value is on record?
A: 0.2

Q: For CAAATGGC, which “PBM E-score” value is on record?
A: 0.05

Q: With ACCCGGTG as the sequence, how does the “PBM E-score” value read?
A: -0.0413

Q: How did the “PBM E-score” value turn out when GATAACCC was run?
A: 0.0444

Q: How did the “PBM E-score” value turn out when ATTGTCCC was run?
A: -0.0994

Q: Which “PBM E-score” value does the source give for CGGTCTGC here?
A: -0.139

Q: Which “PBM E-score” value does the source give for AATTCCAT here?
A: 0.125

Q: How did the “PBM E-score” value turn out when CGACGAAA was run?
A: 0.363

Q: Which “PBM E-score” value does the source give for GACTTGGA here?
A: -0.165

Q: With GTGTAACA as the sequence, how does the “PBM E-score” value read?
A: 0.197

Q: For TCGTAAGA, which “PBM E-score” value is on record?
A: 0.154

Q: How did the “PBM E-score” value turn out when AAGAGAAT was run?
A: -0.016

Q: With ATTGCTAC as the sequence, how does the “PBM E-score” value read?
A: 0.106

Q: For GTAGTCAA, which “PBM E-score” value is on record?
A: 0.106

Q: Which “PBM E-score” value does the source give for AAGTATGA here?
A: 0.0982

Q: Which “PBM E-score” value does the source give for AAGTGTTC here?
A: -0.0135

Q: With CGGGAACC as the sequence, how does the “PBM E-score” value read?
A: -0.245

Q: For CCGAACAC, which “PBM E-score” value is on record?
A: -0.0335

Q: With ACAAGGTA as the sequence, how does the “PBM E-score” value read?
A: 0.0562

Q: How did the “PBM E-score” value turn out when GGATAGCC was run?
A: -0.097

Q: Which “PBM E-score” value does the source give for AGTTAAAA here?
A: 0.0966

Q: With GCCCCTAC as the sequence, how does the “PBM E-score” value read?
A: -0.242

Q: For AATAGCGC, which “PBM E-score” value is on record?
A: 0.0396

Q: CTCCAGCA was tested. Which “PBM E-score” value did it give?
A: -0.166

Q: Which “PBM E-score” value does the source give for ATGACCAA here?
A: 0.239

Q: Which “PBM E-score” value does the source give for AACACTCG here?
A: -0.00319

Q: GGTCCACA was tested. Which “PBM E-score” value did it give?
A: -0.141

Q: For CTACTGGC, which “PBM E-score” value is on record?
A: -0.0885

Q: With CTGGCCCC as the sequence, how does the “PBM E-score” value read?
A: -0.152

Q: CTCTGAGC was tested. Which “PBM E-score” value did it give?
A: -0.165

Q: For AAAGGACC, which “PBM E-score” value is on record?
A: -0.147

Q: Which “PBM E-score” value does the source give for AGGCTACT here?
A: -0.1

Q: GATTCACC was tested. Which “PBM E-score” value did it give?
A: -0.071

Q: GTCGACCA was tested. Which “PBM E-score” value did it give?
A: 0.0601

Q: How did the “PBM E-score” value turn out when AGCGCACC was run?
A: -0.151

Q: ACGGTCGC was tested. Which “PBM E-score” value did it give?
A: 0.134

Q: AGGGTGTA was tested. Which “PBM E-score” value did it give?
A: -0.123

Q: For AAGATCGA, which “PBM E-score” value is on record?
A: -0.00469

Q: With CTCGTCCA as the sequence, how does the “PBM E-score” value read?
A: 0.147

Q: With AATGTGAT as the sequence, how does the “PBM E-score” value read?
A: 0.19

Q: GTCATGAA was tested. Which “PBM E-score” value did it give?
A: 0.124

Q: With ATGTCGAC as the sequence, how does the “PBM E-score” value read?
A: 0.181

Q: Which “PBM E-score” value does the source give for GCCTCGCC here?
A: -0.261

Q: AAATGAGG was tested. Which “PBM E-score” value did it give?
A: 0.0174

Q: ACCTTTAA was tested. Which “PBM E-score” value did it give?
A: -0.0582

Q: How did the “PBM E-score” value turn out when AAACTCCG was run?
A: 0.0887

Q: How did the “PBM E-score” value turn out when GTATATAC was run?
A: 0.184

Q: How did the “PBM E-score” value turn out when CTGTCATC was run?
A: 0.108

Q: For CATTAAGC, which “PBM E-score” value is on record?
A: -0.0212

Q: For TCGACGCA, which “PBM E-score” value is on record?
A: 0.113

Q: AAACCCCG was tested. Which “PBM E-score” value did it give?
A: -0.0584

Q: GATTACTA was tested. Which “PBM E-score” value did it give?
A: -0.0127

Q: Which “PBM E-score” value does the source give for CCGTACTA here?
A: 0.338

Q: Which “PBM E-score” value does the source give for ACGAGCAT here?
A: 0.00886

Q: Which “PBM E-score” value does the source give for GCGGGCTA here?
A: -0.115

Q: With CCAGGGTA as the sequence, how does the “PBM E-score” value read?
A: -0.108

Q: For CACTAGCG, which “PBM E-score” value is on record?
A: 0.051

Q: Which “PBM E-score” value does the source give for ATTCTCGG here?
A: 0.0995

Q: With CAAGCCTA as the sequence, how does the “PBM E-score” value read?
A: -0.0263

Q: Which “PBM E-score” value does the source give for CTTTGGAC here?
A: -0.0654

Q: Which “PBM E-score” value does the source give for GTCACCAC here?
A: 0.278

Q: For ACCAACGA, which “PBM E-score” value is on record?
A: 0.065
